Measurements taken from the supplement of paper PMC10727501.
Some of the results follow. Single values are uncertain here, since repeats match poorly.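 Free-swimming zebrafish larvae were scored for O-bend response probability to dark flashes (naive: first five; training: remaining flashes of four 60-flash blocks; test: later 60-flash block) and for turning toward alternating leftward/rightward LED motion (OMR). Six treated larvae were compared with sixty 0.1% DMSO controls; |SSMD|≥2 defined a hit.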

What follows are molecules tested on Danio rerio larvae (5 dpf, TLF) (assay: Prob-Naive (SSMD vs DMSO vehicle); higher = higher than vehicle (e.g. higher dark-flash O-bend response probability, or better optomotor performance)). Details: 10 µM; pre-incubation: 30-90 min.

| SMILES | Prob-Naive |
| --- | --- |
| NC(Cc1c[nH]c2ccc(O)cc12)C(=O)O (stereo not given) [5-hydroxytryptophan (5-HTP)] | -0.311 |
| CN(C)CCC(c1ccccc1)c1ccccn1.O=C(O)/C=C\C(=O)O (stereo not given) [Pheniramine Maleate] | -0.235 |
| CCCc1nn(C)c2c(=O)[nH]c(-c3cc(S(=O)(=O)N4CCN(C)CC4)ccc3OCC)nc12.O=C(O)CC(O)(CC(=O)O)C(=O)O [Sildenafil Citrate] | -0.329 |
| COc1c(O)cc2c(c1O)[C@@H]1O[C@H](CO)[C@@H](O)[C@H](O)[C@H]1OC2=O [Bergenin] | 0.0956 |
| CC[C@H](c1ccc(O)cc1)[C@@H](CC)c1ccc(O)cc1 [Hexestrol] | -0.813 |
| O=C(NC1CCNCC1)c1n[nH]cc1NC(=O)c1c(Cl)cccc1Cl | -0.043 |
| O=C(O)Cn1nnc(-c2cc(N3CCC(Oc4cc(F)ccc4Br)CC3)no2)n1 | 0 |
| CCOC(=O)c1ccc(N2NC(=O)/C(=C/c3ccc([N+](=O)[O-])o3)C2=O)cc1 | -0.715 |
| Cn1c(=O)n(-c2ccc(C(C)(C)C#N)cc2)c2c3cc(-c4cnc5ccccc5c4)ccc3ncc21 [BEZ235 (NVP-BEZ235, Dactolisib)] | -0.411 |
| CNCCCC12CCC(c3ccccc31)c1ccccc12.Cl [Maprotiline HCl] | 0.644 |
| CC(=O)O[C@@]1(C(C)=O)CC[C@H]2[C@@H]3C=C(Cl)C4=CC(=O)[C@@H]5C[C@H]5[C@]4(C)[C@@H]3CC[C@@]21C [Cyproterone Acetate] | -0.29 |
| CN1CCCCC1CCN1c2ccccc2Sc2ccc(S(C)=O)cc21.O=S(=O)(O)c1ccccc1 (stereo not given) [Mesoridazine Besylate] | 0.153 |
| COS(=O)(=O)[O-].C[N+]1(C)CCC(=C(c2ccccc2)c2ccccc2)CC1 [Diphemanil Methylsulfate] | 0 |
| CCOc1nc2cccc(C(=O)OC(C)OC(=O)OC3CCCCC3)c2n1Cc1ccc(-c2ccccc2-c2nnn[nH]2)cc1 (stereo not given) [Candesartan Cilexetil] | 0.506 |
| O=C(/C=C/c1ccc(O)cc1)c1ccc(O)cc1O [Isoliquiritigenin] | -0.234 |
| CC1=C(C(=O)O)N2C(=O)[C@@H](NC(=O)[C@H](N)c3ccccc3)[C@@H]2SC1 [Cephalexin] | 0.0311 |
| CNC[C@H](O)c1ccc(O)c(O)c1.Cl [Epinephrine HCl] | -0.276 |
| O=C(Nc1c[nH]nc1-c1nc2cc(CN3CCOCC3)ccc2[nH]1)NC1CC1 | -0.766 |
| Cc1cc2nc3c(=O)[nH]c(=O)nc-3n(C[C@H](O)[C@H](O)[C@H](O)CO)c2cc1C [Riboflavin (Vitamin B2)] | -0.142 |
| N#CC[C@@H](C1CCCC1)n1cc(-c2ncnc3[nH]ccc23)cn1 | -0.499 |

Some of these compounds in order of count of non-hydrogen atoms, descending.

| SMILES | Prob-Naive |
| --- | --- |
| CCOc1nc2cccc(C(=O)OC(C)OC(=O)OC3CCCCC3)c2n1Cc1ccc(-c2ccccc2-c2nnn[nH]2)cc1 (stereo not given) [Candesartan Cilexetil] | 0.506 |
| N#CC[C@@H](C1CCCC1)n1cc(-c2ncnc3[nH]ccc23)cn1 | -0.499 |
| O=C(/C=C/c1ccc(O)cc1)c1ccc(O)cc1O [Isoliquiritigenin] | -0.234 |

Further results.

| SMILES | Prob-Naive |
| --- | --- |
| COc1ccc2c(c1)c(C1=C(c3c[nH]c4ccccc34)C(=O)NC1=O)cn2CCCN(C)C | -0.467 |
| NC(=O)Nc1cc(-c2cccc(F)c2)sc1C(=O)N[C@H]1CCCNC1 | -0.297 |
| Cn1cc(-c2cnn3c(N)c(Br)c([C@@H]4CCCNC4)nc23)cn1 | 0.515 |
| COc1cc2c(cc1NS(=O)(=O)c1ccc(Br)cc1C)n(C)c(=O)n2C | 0 |
| CCCc1nc(C(C)(C)O)c(C(=O)OCc2oc(=O)oc2C)n1Cc1ccc(-c2ccccc2-c2nn[nH]n2)cc1 [Olmesartan Medoxomil] | -0.116 |
| NS(=O)(=O)c1ccc(NC(=O)Nc2ccc(F)cc2)cc1 | -0.646 |
| O=C1Nc2ccccc2/C1=C1/Nc2ccccc2C1=O [Indirubin] | -0.13 |
| Cc1cc(C(C)Nc2ccccc2)c2nc(N3CCOCC3)cc(=O)n2c1 (stereo not given) | 0.471 |
| Cl.Nc1c(Br)cc(Br)cc1CN[C@H]1CC[C@H](O)CC1 [Ambroxol HCl] | -0.168 |
| CN(C)C(=O)c1ccc(S(=O)(=O)c2ccc(NC(=O)C(C)(O)C(F)(F)F)c(Cl)c2)cc1 (stereo not given) | -0.0588 |
| CCCCCCCCCCCCCCCCO [1-Hexadecanol] | 0.585 |
| O=C1C[C@@H](c2ccc(O)cc2)Oc2cc(O)cc(O)c21 [Naringenin] | -0.112 |
| Cc1ccc(C)c(OCCCC(C)(C)C(=O)O)c1 [Gemfibrozil] | -2.21 |
| Nc1ccc(C(=O)Nc2cccc(-c3nc(N4CCOCC4)c4oc5ncccc5c4n3)c2)cn1 | -0.618 |
| CN(C)CCOC(C)(c1ccccc1)c1ccccn1.O=C(O)CCC(=O)O (stereo not given) [Doxylamine Succinate] | 0.0551 |
| NC1CCN(c2c(F)cc3c(=O)c(C(=O)O)cn(C4CC4)c3c2Cl)C1 (stereo not given) | -0.0927 |
| NCC(=O)Nc1ccc(-n2nc(C(F)(F)F)cc2-c2ccc3c(ccc4ccccc43)c2)cc1 | -1.49 |
| C=C1C(=O)[C@]23C(CC[C@@H]1[C@H]2O)[C@]12CO[C@]3(O)[C@H](O)[C@@H]1C(C)(C)CC[C@@H]2O (stereo not given in full) [Oridonin] | -0.0728 |
| Nc1nc(N)c2nc(-c3cccc(O)c3)cnc2n1 | -0.137 |
| O=C(NCc1ccccc1)c1csc(Nc2ccncn2)n1 [Thiazovivin] | 0.113 |
